# Assay results reported in the supplement of paper PMC10973195.
# ± gives the standard deviation of the averaged measurements. The list shows a part of the results. These are raw signals, not scaled to a control.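 In this assay, LPS from bacteria induces microglia-mediated neuronal death in a neuron–microglia–astrocyte co-culture, a model of inflammatory neurodegeneration. Compounds were compared against same-plate DMSO vehicle wells, with the SYK inhibitor BAY61-3606 as reference neuroprotective control.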
# System: rat primary cerebellar neuron-glia coculture
# Experiment: live neuron count (NeuO+) per image field (cells per field); higher = more surviving neurons
# Conditions: LPS 0 ng/mL; 1 µM; treatment time 3 days
# Procedure: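 Primary rat (P3-7) cerebellar neuron-glia cocultures in 384-well plates were treated at DIV7 with 1 uM compound, then with or without 100 ng/mL LPS 30 min later, for 3 days. At DIV10 live cells were stained with Hoechst 33342, NeuO (live neurons), IB4-AF594 (microglia) and DRAQ7 (necrotic cells) and imaged at 10x (4 fields per well, IN Cell Analyzer 6000). Cells were classified with Cellpose/CellProfiler plus a Random Trees classifier. Values are per-well mean counts per image field (raw, not min-max normalised) and the median microglial FormFactor per image. Three technical replicates per repeat across 4 biological repeats; DMSO and BAY61-3606 serve as controls.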
row,SMILES,live neuron count
1,CC(C)C[C@H](NC(=O)[C@@H](O)[C@H](N)Cc1ccccc1)C(=O)O,2480 ± 450
2,Cc1cncn1CCCn1c(=S)[nH]c2ccccc2c1=O,2720 ± 490
3,CN(C)c1ccc(/C=C2\C(=O)Nc3ccccc32)cc1,2680 ± 510
4,COC(=O)Nc1ccc2[nH]cc(CCNC(C)=O)c2c1,2600 ± 540
5,Cc1noc(C)c1CC(=O)NCc1ccccc1Cl,2630 ± 490
6,C[C@]12C=CC(=O)C=C1CC[C@H]1[C@@H]3C[C@@H](O)[C@](O)(C(=O)CO)[C@@]3(C)C[C@H](O)[C@@]12F,2940 ± 370
7,CCCCc1oc2ccccc2c1C(=O)c1cc(I)c(OCCN(CC)CC)c(I)c1,2240 ± 600
8,NC1(Cc2ccc(Cl)cc2)CCN(c2ncnc3[nH]ccc23)CC1,2660 ± 400
9,O=C(CN1C(=O)C2(CCCC2)NC[C@H]1c1cc(F)cc(F)c1)Nc1ccc2c(c1)C[C@@]1(C2)C(=O)Nc2ncccc21,2380 ± 700
10,C[C@]12CC[C@@H]3c4ccc(O)cc4C[C@@H](CCCCCCCCC[S+]([O-])CCCC(F)(F)C(F)(F)F)[C@H]3[C@@H]1CC[C@@H]2O (stereo not given in full),2570 ± 430
11,CCCC[n+]1c(/C=C/c2ccc(N(C)C)cc2)sc2ccccc21,458 ± 390
12,CC1(C)Oc2ncnc(N)c2N=C1c1ccc(C23CCC(CC(=O)O)(CC2)CC3)cc1,2610 ± 460
13,COc1cc2ncnc(Nc3cccc(Cl)c3F)c2cc1OC(=O)N1CCN(C)C[C@H]1C,2620 ± 550
14,O=C(Nc1cccc2c(=O)cc(-c3nnn[nH]3)oc12)c1ccc(OCCCCc2ccccc2)cc1,2650 ± 390
15,CC(C)(C)c1cc(C(=O)Cn2c(=N)n(CCN3CCOCC3)c3ccccc32)cc(C(C)(C)C)c1O,2620 ± 470
16,Cc1ccc(NC(=O)/C=C/c2ccccc2)cc1,2570 ± 470
17,CNCc1cc(=O)oc2cc(OCc3cccc(Cl)c3)ccc12,2700 ± 490
18,CN1C(N)=N[C@](C)(c2cc(NC(=O)c3ccc(F)cn3)ccc2F)CS1(=O)=O,2560 ± 340
19,Nc1ccccc1NC(=O)c1ccc(CNC(=O)OCc2cccnc2)cc1,1680 ± 660
20,CN(C)CCNC(=O)c1cccn2c(=O)c3cc4ccccc4cc3nc12,2640 ± 660

# Same assay, conditions: LPS 100 ng/mL; 1 µM; treatment time 3 days
row,SMILES,live neuron count
1,CC(C)C[C@H](NC(=O)[C@@H](O)[C@H](N)Cc1ccccc1)C(=O)O,219 ± 240
2,Cc1cncn1CCCn1c(=S)[nH]c2ccccc2c1=O,343 ± 490
3,CN(C)c1ccc(/C=C2\C(=O)Nc3ccccc32)cc1,282 ± 170
4,COC(=O)Nc1ccc2[nH]cc(CCNC(C)=O)c2c1,260 ± 310
5,Cc1noc(C)c1CC(=O)NCc1ccccc1Cl,240 ± 240
6,C[C@]12C=CC(=O)C=C1CC[C@H]1[C@@H]3C[C@@H](O)[C@](O)(C(=O)CO)[C@@]3(C)C[C@H](O)[C@@]12F,3310 ± 350
7,CCCCc1oc2ccccc2c1C(=O)c1cc(I)c(OCCN(CC)CC)c(I)c1,218 ± 220
8,NC1(Cc2ccc(Cl)cc2)CCN(c2ncnc3[nH]ccc23)CC1,530 ± 600
9,O=C(CN1C(=O)C2(CCCC2)NC[C@H]1c1cc(F)cc(F)c1)Nc1ccc2c(c1)C[C@@]1(C2)C(=O)Nc2ncccc21,315 ± 360
10,C[C@]12CC[C@@H]3c4ccc(O)cc4C[C@@H](CCCCCCCCC[S+]([O-])CCCC(F)(F)C(F)(F)F)[C@H]3[C@@H]1CC[C@@H]2O (stereo not given in full),2600 ± 580
11,CCCC[n+]1c(/C=C/c2ccc(N(C)C)cc2)sc2ccccc21,643 ± 220
12,CC1(C)Oc2ncnc(N)c2N=C1c1ccc(C23CCC(CC(=O)O)(CC2)CC3)cc1,562 ± 460
13,COc1cc2ncnc(Nc3cccc(Cl)c3F)c2cc1OC(=O)N1CCN(C)C[C@H]1C,306 ± 390
14,O=C(Nc1cccc2c(=O)cc(-c3nnn[nH]3)oc12)c1ccc(OCCCCc2ccccc2)cc1,355 ± 540
15,CC(C)(C)c1cc(C(=O)Cn2c(=N)n(CCN3CCOCC3)c3ccccc32)cc(C(C)(C)C)c1O,446 ± 420
16,Cc1ccc(NC(=O)/C=C/c2ccccc2)cc1,323 ± 260
17,CNCc1cc(=O)oc2cc(OCc3cccc(Cl)c3)ccc12,474 ± 660
18,CN1C(N)=N[C@](C)(c2cc(NC(=O)c3ccc(F)cn3)ccc2F)CS1(=O)=O,337 ± 400
19,Nc1ccccc1NC(=O)c1ccc(CNC(=O)OCc2cccnc2)cc1,61.5 ± 49
20,CN(C)CCNC(=O)c1cccn2c(=O)c3cc4ccccc4cc3nc12,234 ± 130
